Assay results as given in patent publication US20240423973A1 (VINCERX PHARMA GMBH, priority 2021, published 2024).

Assay: general procedure: solution-phase peptide synthesis; HATU / N,N-diisopropylethylamine; EDCI/HOBt; NHS active esters
Conditions: trifluoroacetic acid salt; for final purity (method not given) / crude LC-MS purity / final LC-MS purity: LC-MS

With “(4S)-4,11-diethyl-3,14-dioxo-3,4,12,14-tetrahydro-1H-pyrano[3′,4′:6,7]indolizino[1,2-b]quinolin-4-yl N^2-{13-[4-({[(1R)-2-carboxy-1-{3-[({3-[(propylcarbamoyl)amino]phenyl}sulfonyl)amino]phenyl}ethyl]carbamoyl}amino)anilino]-3,6,9-trimethyl-13-oxo-12-aza-3,6,9-triazoniatridecan-1-oyl}-L-asparaginyl-L-prolyl-L-valinate trichloride [B4b]” the “final purity (method not given)” value (late stage modification step) was 100% purity and the step yield (late stage modification step) was 86%.
With Boc-Intermediate 3 the “final purity (method not given)” value (coupling step) was 100% purity and the step yield (coupling step) was 81%.
In the case of Boc-Intermediate 11, the “final purity (method not given)” value (coupling step) was 98% purity and the step yield (coupling step) was 81% yield.
In the case of Boc-Intermediate 12, the “final purity (method not given)” value (conjugation step) was 87% purity and the conjugation yield (conjugation step) was 52% yield.
With Boc-Intermediate 13 the “final purity (method not given)” value (coupling step) was 100% purity and the step yield (coupling step) was 68% yield.
For “N-(tert-butoxycarbonyl)-N-methylglycyl-N-methylglycyl-N-methylglycyl-N-methylglycyl-N-methylglycyl-N-methylglycyl-N-methylglycyl-N-methylglycine”, the “crude LC-MS purity” value (late stage modification step) was 80% purity and the step yield (late stage modification step) was 71% yield.
For “N-{5-[(2,5-dioxopyrrolidin-1-yl)oxy]-5-oxopentanoyl}-N-methylglycyl-N-methylglycyl-N-methylglycyl-N-methylglycine”, the “final LC-MS purity” value (late stage modification step) was 93% purity and the step yield (late stage modification step) was 20% yield.
For “Trisodium (4S)-4,11-diethyl-3,14-dioxo-3,4,12,14-tetrahydro-1H-pyrano[3′,4′:6,7]indolizino [1,2-b]quinoline-4-yl 1-[(2S)-15-{[N^2,N^6-bis({4-[({(1R)-2-carboxylato-1-[3-({3-[(propylcarbamoyl)amino]benzene-1-sulfonyl}amino)phenyl]ethyl}carbamoyl)amino]phenyl} carbamoyl)-L-lysyl]amino}-2-(carboxylatomethyl)-4-oxo-7,10,13-trioxa-3-azapentadecanan-1-oyl]-L-prolyl-L-valinate”, the “final purity (method not given)” value (conjugation step) was 92% purity and the conjugation yield (conjugation step) was 41%.
With “benzyl N-(tert-butoxycarbonyl)-N-methylglycyl-N-methylglycyl-N-methylglycyl-N-methylglycinate” the “final purity (method not given)” value (coupling step) was 97% and the step yield (coupling step) was 96%.
For “benzyl N-(tert-butoxycarbonyl)-N-methylglycyl-N-methylglycyl-N-methylglycyl-N-methylglycyl-N-methylglycyl-N-methylglycyl-N-methylglycyl-N-methylglycinate”, the “final LC-MS purity” value (coupling step) was 89% purity and the step yield (coupling step) was 81% yield.
In the case of “benzyl N-{5-[(2,5-dioxopyrrolidin-1-yl)oxy]-5-oxopentanoyl}-N-methylglycyl-N-methylglycyl-N-methylglycyl-N-methylglycyl-N-methylglycyl-N-methylglycyl-N-methylglycyl-N-methylglycinate”, the “final LC-MS purity” value (late stage modification step) was 91% purity and the step yield (late stage modification step) was 62% yield.
With “disodium N-({4-[({(1R)-2-carboxylato-1-[3-({3-[(propylcarbamoyl)amino]benzene-1-sulfonyl}amino)phenyl]ethyl}carbamoyl)amino]phenyl}carbamoyl)-N-methylglycyl-N-methylglycyl-N-methylglycyl-N-{(2S)-3-carboxylato-1-[(2S)-2-{[(2S)-1-{[(4S)-4,11-diethyl-3,14-dioxo-3,4,12,14-tetrahydro-1H-pyrano[3′,4′:6,7]indolizino[1,2-b]quinolin-4-yl]oxy}-3-methyl-1-oxobutan-2-yl]carbamoyl}pyrrolidin-1-yl]-1-oxopropan-2-yl}-N2-methylglycinamide” the “final purity (method not given)” value (conjugation step) was 97% purity, the conjugation yield (conjugation step) was 69% yield and the “final purity (method not given)” value (late stage modification step) was 93% purity. It also gave a step yield (late stage modification step) of 97%.
In the case of “trifluoroacetic acid-benzyl N-methylglycyl-N-methylglycyl-N-methylglycyl-N-methylglycinate (1/1)”, the “crude LC-MS purity” value (late stage modification step) was 100% purity and the step yield (late stage modification step) was 100% yield.
